In paper PMC5996148:
Some of the results follow.

Assays:
Experiment in all cases: protein microarray (ProtoArray v5.0), streptavidin-Alexa Fluor 647
Conditions in all cases: 3'-biotin; 20 mM Tris (pH 7.5), 5 mM MgCl2, 100 mM KCl, 0.1% Tween-20, A/T-rich and random oligonucleotide blockers; temperature not stated; high values mean tight binding
[1] = test system: LOC401037 (human)
[2] = test system: LOC401169 (human)
[3] = test system: LOC401270 (human)
[4] = test system: LOC401464 (human)
[5] = test system: LOC401607 (human)
[6] = test system: LOC442582 (human)
[7] = test system: LOC51233 (human)
[8] = test system: LOC51252 (human)
[9] = test system: LOC541471 (human)
[10] = test system: LOC541473 (human)

## GGGAGGCTGAGGCAGG [G4-1 biotinylated (PQS2)]
[1]
  binding signal: -0.294 z-score
[2]
  binding signal: -0.328 z-score
[3]
  binding signal: -0.307 z-score
[4]
  binding signal: -0.259 z-score
[5]
  binding signal: -0.331 z-score
[6]
  binding signal: -0.331 z-score
[7]
  binding signal: -0.327 z-score
[8]
  binding signal: -0.334 z-score
[9]
  binding signal: -0.349 z-score
[10]
  binding signal: -0.308 z-score
